Results reported in publication PMC5667506 (Chemical Science, 2015).

Test: general procedure: Fmoc solid-phase peptide synthesis; Rink amide MBHA resin (AAPPTEC)
Settings: late stage modification step

Substance: AcVELARRPLPPLPN-NH2
- step yield: 73%
